Reference: publication PMC5752836
No constants are given. Whether binding was seen depends on the method and setting. Binding seen in cells or lysates may run through a third protein. Some entries that bind do so weakly or less than the wild type.

Chains of the proteins cited; added tags and fusions are not shown.
UniProt P60879: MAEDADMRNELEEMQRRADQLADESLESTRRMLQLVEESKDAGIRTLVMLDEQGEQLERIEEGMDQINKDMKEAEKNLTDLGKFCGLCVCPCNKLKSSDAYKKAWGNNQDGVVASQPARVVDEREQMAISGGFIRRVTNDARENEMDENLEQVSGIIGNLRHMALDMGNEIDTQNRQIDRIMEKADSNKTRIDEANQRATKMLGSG
UniProt Q62277: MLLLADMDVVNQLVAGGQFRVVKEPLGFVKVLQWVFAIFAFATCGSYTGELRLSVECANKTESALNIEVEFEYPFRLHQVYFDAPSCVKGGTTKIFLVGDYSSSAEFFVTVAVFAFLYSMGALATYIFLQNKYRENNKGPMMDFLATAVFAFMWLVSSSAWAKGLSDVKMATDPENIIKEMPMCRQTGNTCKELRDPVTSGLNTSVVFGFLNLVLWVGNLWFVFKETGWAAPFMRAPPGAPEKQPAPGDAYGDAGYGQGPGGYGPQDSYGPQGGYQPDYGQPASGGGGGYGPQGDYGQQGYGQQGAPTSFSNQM

Molecular target: T1, proline-rich transmembrane protein 2 (PRRT2) (mouse (endogenous in mouse brain)) (UniProt E9PUL5)
T1 sequence: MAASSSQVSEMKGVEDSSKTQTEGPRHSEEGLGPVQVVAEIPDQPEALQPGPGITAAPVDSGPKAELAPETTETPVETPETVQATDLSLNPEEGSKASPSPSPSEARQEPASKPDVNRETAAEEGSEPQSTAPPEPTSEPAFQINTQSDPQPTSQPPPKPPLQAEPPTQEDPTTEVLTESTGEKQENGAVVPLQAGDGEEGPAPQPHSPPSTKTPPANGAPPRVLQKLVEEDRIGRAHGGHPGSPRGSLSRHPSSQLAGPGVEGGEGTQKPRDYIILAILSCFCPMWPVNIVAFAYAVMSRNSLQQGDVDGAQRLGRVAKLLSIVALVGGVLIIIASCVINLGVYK
Assay: co-IP; mouse brain lysates in ELB buffer (100 mM Tris, 10 mM EDTA, 300 mM NaCl, 0.2% NP-40, pH 7.5), anti-PRRT2 antibodies overnight at 4 °C, Protein G-Agarose, immunoblotting; controls: Prrt2Stop lysate, WT lysate pre-incubated with the epitope peptide

| binding | Substance |
| --- | --- |
| binds | SNAP-25 (from UniProt P60879 1-206) |
| no binding | SYP (from UniProt Q62277 1-314) |
